Source: PubChem BioAssay AID1224828 (NIAID, 2016)

- Assay: 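Knock-downs that increase or decrease LPS-induced p65 nuclear translocation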 (primary screen)
- System: mouse RAW264.7 G9 macrophage reporter cells (GFP-p65, Tnf promoter-mCherry)
- Reagents: siRNA pool against mouse genes, 100 nM
- Timing: 2 days siRNA transfection, then 40 min LPS before fixation
- Conditions: LPS (Salmonella minnesota R595) at 10 ng/ml
- Measured: 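Imaged p65 nuclear translocation ratio, normalised to the plate median, converted to robust z-scores and averaged across two replicates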
- Reading the numbers: p65 translocation robust z-score: higher = more nuclear NF-kappaB p65 after LPS than the plate median; nuclear/cytoplasmic p65 ratio: higher = more nuclear NF-kappaB p65
- Rule for the call: 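Active if robust z is above 3.3 (negative regulators) or below -1.56, the Tlr4 control median (positive regulators); activity score 50 or more; control wells not called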
- Meaning of the calls: active = hit (p65 shift raised or lowered); inactive = no clear change
Here is a random part of about 17,000 deposited reagents. 762 of them (4.5%) were called active. 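Active calls include both raised and lowered p65 entry, mostly lowered; wells with fewer than 50 cells lack a z-score.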 Raw values vary from plate to plate and are shown uncorrected.

gene knocked down | p65 translocation robust z-score | nuclear/cytoplasmic p65 ratio, rep 1 | nuclear/cytoplasmic p65 ratio, rep 2 | low cell count flag | outcome
Sdhaf4 (GeneID 68002) | -0.71 | 1.42 | 1.37 | enough cells to score | inactive
Rpl22 (GeneID 19934) | -0.32 | 1.41 | 1.16 | enough cells to score | inactive
Or5ap2 (GeneID 258573) | 0.36 | 1.76 | 1.59 | enough cells to score | inactive
Plxna3 (GeneID 18846) | -0.85 | 1.35 | 1.32 | enough cells to score | inactive
Npbwr1 (GeneID 226304) | 0.05 | 1.47 | 1.64 | enough cells to score | inactive
Mrgpre (GeneID 244238) | -1.14 | 1.69 | 1.34 | enough cells to score | inactive
Adam7 (GeneID 11500) | -1.16 | 1.48 | 1.46 | enough cells to score | inactive
Myo18a (GeneID 360013) | -0.31 | 1.7 | 1.57 | enough cells to score | inactive
Casp6 (GeneID 12368) | 0.3 | 1.7 | 1.62 | enough cells to score | inactive
Tut1 (GeneID 70044) | – | 1.32 | 1.15 | fewer than 50 cells per well; well left out of scoring | inactive
Ppcs (GeneID 106564) | -0.41 | 1.26 | 1.46 | enough cells to score | inactive
Prl5a1 (GeneID 28078) | -1.09 | 1.49 | 1.52 | enough cells to score | inactive
Mrps10 (GeneID 64657) | -1.82 | 1.52 | 1.29 | enough cells to score | active
Or2h2c (GeneID 258448) | 2.02 | 1.81 | 1.39 | enough cells to score | inactive
Psme1 (GeneID 19186) | 0.4 | 1.48 | 1.53 | enough cells to score | inactive
Cers5 (GeneID 71949) | -1.01 | 1.37 | 1.33 | enough cells to score | inactive
Lemd2 (GeneID 224640) | 1.36 | 1.78 | 2.07 | enough cells to score | inactive
Stxbp3 (GeneID 20912) | 0.82 | 1.53 | 1.32 | enough cells to score | inactive
Clk3 (GeneID 102414) | -0.88 | 1.51 | 1.31 | enough cells to score | inactive
Enpp2 (GeneID 18606) | 1.88 | 1.77 | 1.85 | enough cells to score | inactive
Or52b3 (GeneID 259105) | 0.92 | 1.53 | 1.38 | enough cells to score | inactive
Vegfc (GeneID 22341) | 0.04 | 1.47 | 1.55 | enough cells to score | inactive
Aqp6 (GeneID 11831) | -0.15 | 1.63 | 1.56 | enough cells to score | inactive
Rbsn (GeneID 78287) | -0.2 | 1.32 | 1.22 | enough cells to score | inactive
Chst8 (GeneID 68947) | -0.31 | 1.54 | 1.74 | enough cells to score | inactive
Faxc (GeneID 76132) | 1.49 | 1.48 | 1.74 | enough cells to score | inactive
Rab25 (GeneID 53868) | -0.12 | 1.56 | 1.44 | enough cells to score | inactive
Zg16 (GeneID 69036) | 0.5 | 1.51 | 1.43 | enough cells to score | inactive
Dhrs2 (GeneID 71412) | – | 1.16 | 1.37 | fewer than 50 cells per well; well left out of scoring | inactive
Rps19bp1 (GeneID 66538) | – | 1.23 | 1.11 | fewer than 50 cells per well; well left out of scoring | inactive
Nat8f2 (GeneID 93673) | -0.34 | 1.58 | 1.69 | enough cells to score | inactive
Spmip10 (GeneID 67343) | -0.68 | 1.33 | 1.31 | enough cells to score | inactive
Cpne9 (GeneID 211232) | 0.57 | 1.48 | 1.58 | enough cells to score | inactive
Tas1r3 (GeneID 83771) | -0.57 | 1.47 | 1.46 | enough cells to score | inactive
Tle3 (GeneID 21887) | -0.77 | 1.38 | 1.44 | enough cells to score | inactive
Or51a8 (GeneID 259114) | – | 1.42 | 1.2 | fewer than 50 cells per well; well left out of scoring | inactive
Dcun1d3 (GeneID 233805) | -1.35 | 1.41 | 1.62 | enough cells to score | inactive
Cabcoco1 (GeneID 73287) | – | 1.22 | 1.34 | fewer than 50 cells per well; well left out of scoring | inactive
Baat (GeneID 12012) | -0.03 | 1.66 | 1.56 | enough cells to score | inactive
Rnpep (GeneID 215615) | 0.46 | 1.53 | 1.63 | enough cells to score | inactive

Targets listed so far whose gene name starts with D or d (2):
gene knocked down | p65 translocation robust z-score | nuclear/cytoplasmic p65 ratio, rep 1 | nuclear/cytoplasmic p65 ratio, rep 2 | low cell count flag | outcome
Dhrs2 (GeneID 71412) | – | 1.16 | 1.37 | fewer than 50 cells per well; well left out of scoring | inactive
Dcun1d3 (GeneID 233805) | -1.35 | 1.41 | 1.62 | enough cells to score | inactive
